# Reference: PubChem BioAssay AID588590 (National Center for Advancing Translational Sciences (NCATS), 2011)
# Chains of the proteins cited; added tags and fusions are not shown. Lines headed by an entry give the natural chain unless they say otherwise; changes in a name come on top.
# UniProt Q9UNA4: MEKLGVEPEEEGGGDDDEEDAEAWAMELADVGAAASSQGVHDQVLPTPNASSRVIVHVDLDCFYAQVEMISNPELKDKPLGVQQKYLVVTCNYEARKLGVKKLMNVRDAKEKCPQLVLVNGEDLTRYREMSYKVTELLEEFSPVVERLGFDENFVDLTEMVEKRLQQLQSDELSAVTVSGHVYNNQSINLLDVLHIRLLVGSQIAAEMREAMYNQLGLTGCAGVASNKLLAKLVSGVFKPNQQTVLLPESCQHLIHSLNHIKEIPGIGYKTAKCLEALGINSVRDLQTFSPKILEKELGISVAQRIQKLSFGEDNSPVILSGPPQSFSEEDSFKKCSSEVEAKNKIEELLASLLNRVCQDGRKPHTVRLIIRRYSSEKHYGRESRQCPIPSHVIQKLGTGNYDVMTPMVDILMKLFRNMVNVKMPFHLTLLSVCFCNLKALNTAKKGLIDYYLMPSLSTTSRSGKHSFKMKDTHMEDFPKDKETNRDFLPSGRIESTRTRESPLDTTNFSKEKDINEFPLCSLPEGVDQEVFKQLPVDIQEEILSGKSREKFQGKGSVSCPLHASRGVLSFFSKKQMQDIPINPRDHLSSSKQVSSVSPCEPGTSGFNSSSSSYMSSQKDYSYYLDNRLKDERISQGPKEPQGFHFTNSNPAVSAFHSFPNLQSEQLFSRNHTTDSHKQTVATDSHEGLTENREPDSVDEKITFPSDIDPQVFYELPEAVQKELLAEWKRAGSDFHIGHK
# Where “and” joins values, the source holds several entries; their conditions need not be identical. Identical values can stand only once. Screen size: about 390,000 compounds; about 4,000 (1%) were called active. This list was built around the results that the source calls inconclusive (neither active nor inactive); the mix of calls is not that of the screen. The call rests on the fitted dose curve; in most records, active means well fitted inhibition curve with a large enough effect; inconclusive means small, poorly fitted or top-dose-only effect, or another doubt; inactive means no such curve, though single readings can be large or run the other way. Potencies of inconclusive entries are doubtful fits and often do not repeat.
# Target: DNA polymerase iota (Homo sapiens) (UniProt Q9UNA4)
# Test: qHTS for Inhibitors of Polymerase Iota
# Settings: Pol iota fluorescent replication assay, 10 min; series mostly up to 115 µM; activity, negative = inhibition: at the top concentration
# Summary of the method: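 Fluorescent replication assay read twice, at 0 min and 10 min after adding 50 nM (final) substrate. Enzyme (10 nM) and compounds were first incubated 15 min at room temperature; enzyme-free buffer wells were negative controls.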
# Potency means the concentration at half of the fitted maximal effect.
SMILES,Potency,"activity, negative = inhibition"
O=[N+]([O-])c1ccc(-c2nc(NCC3CCCO3)c3ccccc3n2)cc1 (stereo unspecified),"inconclusive: 35.5 µM [inhibitor, partial curve, poor fit]",–
CCc1ccc(NC(=O)COC(=O)c2cccs2)cc1,"inconclusive: 100 µM [inhibitor, single point]",–
Cn1nc(C(=O)Nc2ccccc2Cl)cc1C(=O)Nc1ccccc1Cl,"inconclusive: 100 µM [inhibitor, single point]",–
O=C(CCCN1C(=O)/C(=C\c2ccccc2)SC1=S)Nc1cccc(C(=O)O)c1,"inconclusive: 14.1 µM [inhibitor, partial curve, poor fit]",–
COc1ccc(NC(=O)[C@@H]2CC=C[C@@H]3CCN(Cc4ccc(Cl)c(Cl)c4)C(=O)[C@@H]32)cc1,"inconclusive: 31.6 µM [inhibitor, partial curve, poor fit]",–
CCOc1ccc(C(=O)Nc2nnc(S(=O)(=O)N(CC)c3ccccc3C)s2)cc1,–,inactive: 4.77%
COc1ccc(-n2c(C)nnc2SCC(=O)N2CCOCC2)cc1,"inconclusive: 25.1 µM [inhibitor, partial curve, poor fit]",–
O=C1N=c2ccccc2=C1c1sc(Nc2ccc(O)cc2)nc1O,active: 8.91 µM,–
COC(=O)C1N[C@@H]([C@@H](NC(=O)COc2ccccc2)C(=O)NCc2ccsc2)SC1(C)C (stereo partly specified),"inconclusive: 39.8 µM [inhibitor, single point]",–
COCc1cc(C)nc(OCC(=O)N/N=C/c2ccc(O)cc2O)c1C#N,"inconclusive: 89.1 µM [inhibitor, single point]",–
O=C(c1cc2ccccc2cc1O)N1CCN(c2ccc([N+](=O)[O-])cc2)CC1,active: 89.1 µM,–
Cc1ccc(S(=O)(=O)Nc2ncc(C(F)(F)F)cc2Cl)cc1,"inconclusive: 79.4 µM [inhibitor, single point]",–
Cc1ccc(S(=O)(=O)Nc2nc(-c3ccccc3)cs2)cc1,–,inactive: 84.7%
CC1=CC2(C)C(C3C(C)=CC2(C)C(=O)C3(C)O)C(C)(O)C1=O (stereo unspecified),–,inactive: 30.2%
Cc1cccc(C)c1NC(=O)C1CCCCN1C (stereo unspecified),"inconclusive: 89.1 µM [inhibitor, partial curve, poor fit]",–
COc1ccc(Cn2c(=O)c3cccnc3n(Cc3ccc([N+](=O)[O-])cc3)c2=O)cc1,"inconclusive: 44.7 µM [inhibitor, partial curve, poor fit]",–
CCC(=O)C1=C(c2cccc([N+](=O)[O-])c2)N(C(=O)CC)n2c(nnc2-c2ccccc2)S1,"inconclusive: 31.6 µM [inhibitor, partial curve, poor fit]",–
Cn1c(CCNC(=O)c2ccccc2)nc2ccccc21,–,inactive: 22.9%
COc1ccccc1N1CCN(Cc2cc3c(cc2[N+](=O)[O-])OCO3)CC1,"inconclusive: 17.8 µM [inhibitor, partial curve, poor fit]",–
CC(NC(=O)c1ccc2c(c1)C(=O)N(Cc1cccnc1)C2=O)c1ccccc1 (stereo unspecified),–,inactive: 26.4%
NS(=O)(=O)c1cccc(NC(=O)COC(=O)CC2CC3CCC2C3)c1 (stereo unspecified),–,inactive: 18.6%

SMILES,Potency,"activity, negative = inhibition"
C=CCn1c(=O)c2ccccc2n2c(SCC(=O)c3ccccc3)nnc12,"inconclusive: 25.1 µM [inhibitor, single point]",–
CCc1ccccc1N(C)C(=O)c1cnc(N2CCOCC2)c2ccccc12,–,inactive: 15.6%
Cc1ccc(C)c(Nc2nn3c(=O)c4ccc(C(=O)NCCc5ccccc5)cc4nc3s2)c1,–,inactive: -9.88%
Cc1cc(C)c(-c2noc(C(=O)OC(C)(C)C)c2C(=O)OC(C)(C)C)c(C)c1,"inconclusive: 20 µM [inhibitor, single point]",–
C[C@@H]1CN([C@@H](C)CO)C(=O)c2cc(NC(=O)CCN3CCOCC3)ccc2O[C@@H]1CN(C)C(=O)Nc1ccccc1,"inconclusive: 1.26 µM [inhibitor, full curve, poor fit]",–
CN(CC(=O)Nc1ccc(F)cc1)C(=O)c1ccc(OCc2cn3ccccc3n2)cc1,"inconclusive: 50.1 µM [inhibitor, partial curve, poor fit]",–
O=C(Nc1ccccc1Cl)OC1CCCCC1,–,inactive: 40.3%
N#CCc1c(C#N)c(N)nc(N2CCN(c3ccc(F)cc3)CC2)c1C#N,"inconclusive: 100 µM [inhibitor, single point]",–
CCOC(=O)C1=C(C)Nc2ccccc2N=C1NC(=O)CCCN1C(=O)c2ccccc2C1=O,"inconclusive: 39.8 µM [inhibitor, single point]",–
COc1cc(/C=C/C(=O)N2CCC=CC2=O)cc(OC)c1OC,"inconclusive: 39.8 µM [inhibitor, partial curve, poor fit]",–
Cc1n[nH]c(C)c1S(=O)(=O)N1CCCC(C(=O)Nc2ccc(Cl)cc2)C1 (stereo unspecified),–,inactive: 13%
Cc1ccc(S(=O)(=O)CCc2nnc(NC(=O)c3ccccn3)s2)cc1,"inconclusive: 0.631 µM [inhibitor, full curve, poor fit]",–
COc1ccc2nc(NC(=O)C3CCN(S(=O)(=O)c4cccs4)CC3)sc2c1,"inconclusive: 56.2 µM [inhibitor, partial curve, poor fit]",–
CC1CCN(C(=O)CSc2nnc(Cc3cc(=O)[nH]c(=O)[nH]3)n2-c2ccc(Cl)cc2)CC1,"inconclusive: 89.1 µM [inhibitor, single point]",–
Cc1cccc(NC(=O)/C=C/c2cccs2)n1,–,inactive: -7.23%
CSc1ncc(C(=O)NCc2ccccc2)c(-c2ccccc2)n1,"inconclusive: 100 µM [inhibitor, partial curve, poor fit]",–
O=c1[nH]c2c(s1)C(c1ccco1)C1C3CCC(C3)C1S2 (stereo unspecified),"inconclusive: 35.5 µM [inhibitor, partial curve, poor fit]",–
Cc1ccc(NCc2nnc(SCC(=O)c3ccccc3)n2Cc2ccco2)c(C)c1,"inconclusive: 1.12 µM [inhibitor, full curve, poor fit]",–
Cc1ccc(C)c(S(=O)(=O)N2CCN(C(=O)c3ccc4ccccc4n3)CC2)c1,"inconclusive: 100 µM [inhibitor, single point]",–
Cc1ccccc1Cn1nnc2c(=O)[nH]c(C3CCN(C(=O)c4ccccc4)CC3)nc21,"inconclusive: 100 µM [inhibitor, single point]",–
COc1ccc(NC(=O)CSc2nc(N)c3cc4c(nc3n2)CCCC4)c(OC)c1,"inconclusive: 112 µM [inhibitor, partial curve, poor fit]",–

SMILES,Potency,"activity, negative = inhibition"
CCOC(=O)c1cnc2ccc(C(=O)OC)cc2c1Nc1ccccc1CC,"inconclusive: 89.1 µM [inhibitor, single point]",–
COc1cc(NC(=O)Cn2cnc(C(=O)Nc3ccc(C)c(C)c3)n2)cc(OC)c1OC,"inconclusive: 50.1 µM [inhibitor, partial curve, poor fit]",–
CCCC(C)C(=O)Nc1nc(C)c(-c2csc(Nc3cc(Cl)ccc3C)n2)s1 (stereo unspecified),"inconclusive: 10 µM [inhibitor, partial curve, poor fit]",–
COc1ccccc1C(CC(N)=O)c1ccco1 (stereo unspecified),"inconclusive: 89.1 µM [inhibitor, partial curve, poor fit]",–
Cc1cc[n+](-c2[nH]c(=O)sc2/C=N/NC([S-])=Nc2ccccc2)cc1,active: 22.4 µM,–
COc1ccc(-c2cc(=O)c3cc(OC)c(OC)cc3[nH]2)cc1,"inconclusive: 50.1 µM [inhibitor, partial curve, poor fit]",–
CCOC(=O)c1c(NC(=O)Cn2nnc(-c3ccc(Cl)cc3)n2)sc(CC)c1C,"inconclusive: 44.7 µM [inhibitor, single point]",–
CC[C@H](C)/C=C(C)/C=C/C(=O)Cc1cc(O)c(C)c(O)c1C=O,"inconclusive: 15.8 µM [inhibitor, full curve, poor fit]",–
NC(=O)c1ccccc1NC(=O)c1cccc(C(=O)Nc2ccccc2C(N)=O)n1,"inconclusive: 7.08 µM [inhibitor, full curve, poor fit]",–
Cc1cc(C)cc(-n2ccnc2SCC(=O)Nc2nc3ccccc3s2)c1,"inconclusive: 100 µM [inhibitor, partial curve, poor fit]",–
CC1Nc2ncnc(N3CCN(c4ccccc4)CC3)c2N(Cc2ccc(Cl)cc2)C1=O (stereo unspecified),"inconclusive: 15.8 µM [inhibitor, partial curve]",–
Cc1ccc(-c2nnn(CC(=O)NCC3CC3)n2)o1,–,inactive: 4.96%
CCn1c(=O)n(-c2ccc(F)c(Cl)c2)c(=O)c2c3c(sc21)CN(C(C)=O)CC3,"inconclusive: 39.8 µM [inhibitor, single point]",–
COc1cccc(OC)c1C(=O)N1CCN(Cc2ccncc2)CC1,"inconclusive: 39.8 µM [inhibitor, single point]",–
Cc1ccc(/C=N/NC(=O)c2nnn(-c3nonc3N)c2CSc2ccccc2)o1,–,inactive: 24.8%
Cc1cc(Cl)ccc1OCC(=O)Nc1nc(-c2cccs2)cs1,"inconclusive: 14.1 µM [inhibitor, full curve, poor fit]",–
Cc1nc2sc(C(c3ccco3)N3CCc4ccccc4C3)c(O)n2n1 (stereo unspecified),"inconclusive: 12.6 µM [inhibitor, full curve]",–
COc1cc(/C=C2\CCC/C(=C\c3ccc(O)c(OC)c3)C2=O)ccc1O,"inconclusive: 79.4 µM [inhibitor, partial curve] and inconclusive: 31.6 µM [inhibitor, single point]",–
CCCCS(=O)(=O)N1C2=NC(C(=O)OC)=C(C(=O)OC)[C@@H]3N(C)c4ccc(OC)cc4[C@]23C[C@H]1C(=O)OC,"inconclusive: 39.8 µM [inhibitor, single point]",–
